Results deposited as PubChem BioAssay AID1259425 (University of Nebraska Medical Center, 2018)
Purpose: 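Seek colon cancer weak points whose silencing resembles KSR1 loss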 (primary screen). System: HCT116 human colon cancer cells. Reagent: siRNA pool against human genes, 50 nM siRNA. Read-out: 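After 50 nM siRNA pool, branched-DNA assay measures six marker transcripts per well, minus blank, normalised to the geometric mean of two housekeeping transcripts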. Reading the numbers: BNIP3L mRNA: higher = more BNIP3L transcript after knockdown; NDRG1 mRNA: higher = more NDRG1 transcript after knockdown; BNIP3 mRNA: higher = more BNIP3 transcript after knockdown; ALDOC mRNA: higher = more ALDOC transcript after knockdown; ACSL5 mRNA: higher = more ACSL5 transcript after knockdown.
Shown is an unselected part of about 14,000 deposited reagents. Not given: the time to read-out.

no.	gene	BNIP3L mRNA, set 1	NDRG1 mRNA, set 1	BNIP3 mRNA, set 1	ALDOC mRNA, set 1	ACSL5 mRNA, set 1
1	UCN	0.107	0.576	0.187	0.0126	0.132
2	CADM3	0.0727	0.0495	0.167	0.00781	0.059
3	GUCY1A1	0.0765	0.135	0.178	0.0129	0.09
4	POU2AF1	0.0916	0.522	0.47	0.0188	0.139
5	UBE2D1	0.0804	0.198	0.312	0.0214	0.162
6	SLC17A3	0.104	0.314	0.209	0.0303	0.249
7	NID1	0.114	0.136	0.28	0.0436	0.184
8	POLE	0.145	0.0717	0.22	0.0212	0.137
9	SUSD1	0.0695	0.202	0.3	0.0211	0.121
10	METTL13	0.16	0.0982	0.248	0.031	0.078
11	NIPSNAP3B	0.0817	0.3	0.289	0.0336	0.207
12	MYBL2	0.21	0.234	0.29	0.00691	0.242
13	NAT14	0.132	0.142	0.158	0.0325	0.215
14	POMK	0.12	0.241	0.335	0.0299	0.267
15	PRIM1	0.0812	0.19	0.301	0.0344	0.118
16	DCUN1D5	0.0885	0.0686	0.216	0.0541	0.159
17	PSD3	0.0912	0.337	0.277	0.0496	0.151
18	SCGB1D1	0.102	0.0439	0.221	0.0168	0.0943
19	PLCB2	0.187	0.116	0.159	0.0254	0.16
20	BCAN	0.125	0.414	0.229	0.0202	0.178
21	AKR7A2	0.132	0.13	0.4	0.00152	0.25
22	RPP14	0.0729	0.158	0.138	0.00754	0.0607
23	SLC22A7	0.0676	0.501	0.298	0.0321	0.367
24	SPAG4	0.087	0.218	0.251	0.0391	0.156
25	ZNF132	0.214	1.28	0.517	0.106	0.261
26	THOC1	0.0633	0.429	0.27	0.00865	0.0918
27	SAP30BP	0.122	0.152	0.299	0.0303	0.154
28	SFTPC	0.081	0.0777	0.272	0.0124	0.142
29	PARP12	0.138	0.0746	0.267	0.0292	0.157
30	TLCD3B	0.173	0.0962	0.335	0.0741	0.27
31	PRAMEF1	0.0734	0.121	0.243	0.0114	0.233
32	CERK	0.116	0.0309	0.209	0.00934	0.159

3 entries from above, reformatted.
{"gene":"GUCY1A1","BNIP3L mRNA, set 1":0.0765,"NDRG1 mRNA, set 1":0.135,"BNIP3 mRNA, set 1":0.178,"ALDOC mRNA, set 1":0.0129,"ACSL5 mRNA, set 1":0.09}
{"gene":"POU2AF1","BNIP3L mRNA, set 1":0.0916,"NDRG1 mRNA, set 1":0.522,"BNIP3 mRNA, set 1":0.47,"ALDOC mRNA, set 1":0.0188,"ACSL5 mRNA, set 1":0.139}
{"gene":"UBE2D1","BNIP3L mRNA, set 1":0.0804,"NDRG1 mRNA, set 1":0.198,"BNIP3 mRNA, set 1":0.312,"ALDOC mRNA, set 1":0.0214,"ACSL5 mRNA, set 1":0.162}

Additional reagents:
no.	gene	BNIP3L mRNA, set 1	NDRG1 mRNA, set 1	BNIP3 mRNA, set 1	ALDOC mRNA, set 1	ACSL5 mRNA, set 1
33	MTCL1	0.136	0.43	0.661	0.0426	0.12
34	CHRNA5	0.105	0.129	0.268	0.0199	0.111
35	RIT2	0.0697	0.129	0.27	0.0348	0.136
36	MT4	0.102	0.109	0.231	0.023	0.0851
37	TNFSF14	0.114	0.199	0.213	0.035	0.0638
38	C1orf54	0.15	0.311	0.404	0.0335	0.274
39	PDZK1IP1	0.139	0.286	0.349	0.0187	0.249
40	SLC25A11	0.0474	0.186	0.341	0.101	0.268
41	MEAK7	0.307	0.997	0.489	0.0228	0.37
42	COX7A2L	0.087	0.308	0.143	0.013	0.186
43	HAPLN1	-0.0319	0.194	0.277	0.0324	0.125
44	BATF	0.0917	0.0921	0.36	-0.0034	0.262
45	MEX3C	0.13	0.327	0.51	0.0314	0.357
46	SLC12A3	0.0778	0.107	0.282	0.0393	0.073
47	SNX11	0.137	0.114	0.228	0.0335	0.0718
48	FXR2	0.0955	0.545	0.266	0.00301	0.296
49	CD3G	0.0925	0.199	0.311	0.0305	0.149
50	TMEM144	0.107	0.143	0.377	0.0291	0.164
